Reference: article PMC10180636
Results are given in words; binding and its absence hold for the method and conditions named. Binding seen in cells or lysates may run through a third protein. A yes stands for co-enrichment or nearness to the bait. Other partners may have been found.

Protein sequences, listed by entry. Tags and fused reporters are not part of them.
UniProt Q8IBZ0: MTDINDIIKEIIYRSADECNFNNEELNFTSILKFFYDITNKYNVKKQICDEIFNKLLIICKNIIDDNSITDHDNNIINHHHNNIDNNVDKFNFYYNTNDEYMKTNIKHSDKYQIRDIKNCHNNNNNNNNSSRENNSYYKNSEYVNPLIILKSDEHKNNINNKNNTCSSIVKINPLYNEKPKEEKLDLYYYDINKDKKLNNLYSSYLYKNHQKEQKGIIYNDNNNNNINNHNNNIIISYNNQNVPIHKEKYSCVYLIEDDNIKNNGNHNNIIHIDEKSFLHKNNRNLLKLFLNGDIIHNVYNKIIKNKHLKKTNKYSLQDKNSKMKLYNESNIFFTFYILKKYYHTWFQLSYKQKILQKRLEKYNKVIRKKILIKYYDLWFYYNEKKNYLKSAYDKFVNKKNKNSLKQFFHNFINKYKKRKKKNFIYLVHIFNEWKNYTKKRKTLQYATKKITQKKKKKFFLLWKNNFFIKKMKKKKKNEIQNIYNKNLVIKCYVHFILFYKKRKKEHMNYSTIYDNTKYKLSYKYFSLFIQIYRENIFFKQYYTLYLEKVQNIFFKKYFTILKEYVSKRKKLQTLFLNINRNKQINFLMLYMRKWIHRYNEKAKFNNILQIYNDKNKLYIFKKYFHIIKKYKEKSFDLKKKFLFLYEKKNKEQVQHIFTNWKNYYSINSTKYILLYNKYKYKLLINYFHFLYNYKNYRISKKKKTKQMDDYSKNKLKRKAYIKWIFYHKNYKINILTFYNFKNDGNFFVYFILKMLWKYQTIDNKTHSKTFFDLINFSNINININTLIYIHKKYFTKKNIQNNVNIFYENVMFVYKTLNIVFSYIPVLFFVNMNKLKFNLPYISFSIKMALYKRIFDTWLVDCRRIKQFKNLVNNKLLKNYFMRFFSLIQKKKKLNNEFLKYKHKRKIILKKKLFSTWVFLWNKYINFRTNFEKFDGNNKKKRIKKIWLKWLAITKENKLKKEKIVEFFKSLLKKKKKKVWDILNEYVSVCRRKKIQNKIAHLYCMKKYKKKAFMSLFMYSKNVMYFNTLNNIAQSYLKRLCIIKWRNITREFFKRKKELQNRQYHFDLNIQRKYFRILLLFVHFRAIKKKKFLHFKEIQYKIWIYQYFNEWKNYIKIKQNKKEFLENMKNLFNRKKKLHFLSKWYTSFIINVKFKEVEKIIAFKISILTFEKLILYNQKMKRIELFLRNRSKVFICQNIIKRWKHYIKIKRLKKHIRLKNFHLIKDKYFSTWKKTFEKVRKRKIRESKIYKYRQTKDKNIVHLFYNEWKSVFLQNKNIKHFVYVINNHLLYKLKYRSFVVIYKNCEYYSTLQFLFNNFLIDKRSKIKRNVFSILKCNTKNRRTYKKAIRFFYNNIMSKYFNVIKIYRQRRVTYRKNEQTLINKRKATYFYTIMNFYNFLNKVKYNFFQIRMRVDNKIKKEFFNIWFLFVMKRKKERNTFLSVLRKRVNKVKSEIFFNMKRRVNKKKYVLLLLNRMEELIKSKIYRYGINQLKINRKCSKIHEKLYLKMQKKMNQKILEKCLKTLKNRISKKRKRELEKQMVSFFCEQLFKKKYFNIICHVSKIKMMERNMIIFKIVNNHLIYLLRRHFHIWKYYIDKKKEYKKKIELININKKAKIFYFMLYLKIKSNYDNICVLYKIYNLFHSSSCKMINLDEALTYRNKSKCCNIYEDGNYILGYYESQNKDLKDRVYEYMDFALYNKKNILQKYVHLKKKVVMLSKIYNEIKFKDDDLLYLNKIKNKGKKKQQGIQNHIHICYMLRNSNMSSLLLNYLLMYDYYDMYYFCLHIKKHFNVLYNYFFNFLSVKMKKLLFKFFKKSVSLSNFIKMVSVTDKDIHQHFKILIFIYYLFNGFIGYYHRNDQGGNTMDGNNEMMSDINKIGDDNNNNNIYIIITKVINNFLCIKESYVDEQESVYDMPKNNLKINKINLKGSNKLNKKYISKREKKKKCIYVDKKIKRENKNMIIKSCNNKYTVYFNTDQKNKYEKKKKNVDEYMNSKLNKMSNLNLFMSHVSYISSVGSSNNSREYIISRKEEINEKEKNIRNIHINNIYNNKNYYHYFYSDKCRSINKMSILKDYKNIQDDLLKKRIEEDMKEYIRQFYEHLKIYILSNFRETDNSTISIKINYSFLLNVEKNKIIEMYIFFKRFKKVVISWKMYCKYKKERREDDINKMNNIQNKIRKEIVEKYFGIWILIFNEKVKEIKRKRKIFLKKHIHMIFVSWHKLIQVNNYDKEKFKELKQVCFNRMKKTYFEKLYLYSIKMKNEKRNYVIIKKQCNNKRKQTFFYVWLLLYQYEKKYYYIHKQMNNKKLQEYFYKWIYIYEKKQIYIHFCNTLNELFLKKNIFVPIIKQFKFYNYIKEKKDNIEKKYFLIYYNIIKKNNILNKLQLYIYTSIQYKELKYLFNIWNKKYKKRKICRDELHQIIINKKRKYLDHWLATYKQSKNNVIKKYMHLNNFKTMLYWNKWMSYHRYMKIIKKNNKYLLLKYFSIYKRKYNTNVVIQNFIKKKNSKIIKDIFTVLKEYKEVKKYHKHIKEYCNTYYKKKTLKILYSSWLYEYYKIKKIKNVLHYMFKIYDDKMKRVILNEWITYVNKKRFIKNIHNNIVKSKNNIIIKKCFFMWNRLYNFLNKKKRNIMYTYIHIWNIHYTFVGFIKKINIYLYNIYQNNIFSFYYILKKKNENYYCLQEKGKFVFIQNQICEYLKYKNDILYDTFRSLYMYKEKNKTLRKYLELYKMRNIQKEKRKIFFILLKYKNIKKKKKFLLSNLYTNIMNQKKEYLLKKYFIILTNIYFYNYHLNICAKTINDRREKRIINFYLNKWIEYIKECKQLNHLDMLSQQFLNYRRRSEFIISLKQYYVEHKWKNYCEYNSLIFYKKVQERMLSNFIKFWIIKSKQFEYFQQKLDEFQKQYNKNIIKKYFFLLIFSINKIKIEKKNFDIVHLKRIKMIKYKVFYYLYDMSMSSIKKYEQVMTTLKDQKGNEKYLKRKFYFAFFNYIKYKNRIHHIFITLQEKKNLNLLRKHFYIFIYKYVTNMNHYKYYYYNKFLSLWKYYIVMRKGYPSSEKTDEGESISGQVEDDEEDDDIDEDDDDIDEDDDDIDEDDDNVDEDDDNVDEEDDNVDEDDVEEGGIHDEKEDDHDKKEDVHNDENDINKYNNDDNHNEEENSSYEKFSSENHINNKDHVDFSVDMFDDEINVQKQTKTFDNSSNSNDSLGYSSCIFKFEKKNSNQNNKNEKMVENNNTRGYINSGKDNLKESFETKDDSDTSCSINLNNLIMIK

Biological target: PfCen1-GFP (P. falciparum) (UniProt Q8I272)
Experiment: affinity purification with mass spectrometry; mouse anti-GFP antibody on Protein G Dynabeads, RIPA lysate of PfCen1-GFP schizonts, overnight at 4°C, no protein crosslinking; compared with GFP control pulldowns of a previous study

binding: binds
Substance: Sfi1-like protein (PfSlp), PF3D7_0710000 (from UniProt Q8IBZ0 1-3267)
